The list is a part of this screen's results and no random one: it is rich in T/C values a quarter to a half above the control, in often repeated tests (any T/C) and in doses without a T/C. Further doses and runs are listed elsewhere. T/C is the treated group as % of the vehicle group. Some doses have a count of surviving animals in place of a T/C: the source holds a T/C of zero for them, seemingly a mark for toxic or unscored doses. Some doses without a T/C left all or most animals alive at the check, yet need not have been tolerated: the source hardly ever lists a survival T/C far under the control, and the zero likely stands for such cases as well. Counts of survivors are from the toxicity check (mostly the fifth day) where no day follows; animals may have died later. Schedule codes are those of the source, taken here to give the interval after Q, in days (D) or hours (H), and the number of doses after X.
Test system: L1210 leukemia ip in BDF1 mice, survival T/C
Assay: NCI In Vivo Anticancer Drug Screen. Data for tumor model L1210 Leukemia (intraperitoneal) in B6D2F1 (BDF1) mice
Details: higher T/C = longer survival
[1] = T/C endpoint: mean survival time, dose: 400.0 mg/kg/injection, schedule: Q01DX001 (ip), vehicle: saline

For `CCCCCCOP(=O)(N1CC1)N1CC1`, the survivor count (T/C endpoint: mean survival time, dose: 300.0 mg/kg/injection, schedule: Q01DX001 (ip), vehicle: saline) was 5 of 6, the survivor count [1] was 1 of 6 and the survivor count (T/C endpoint: mean survival time, dose: 800.0 mg/kg/injection, schedule: Q01DX001 (ip), vehicle: saline) was 1 of 6.
With `CC1(C)OC2OC(C(O)CSCc3ccccc3)C(O)C2O1` (configuration not stated) the survivor count (T/C endpoint: mean survival time, dose: 400.0 mg/kg/injection, schedule: Q01DX001 (ip), vehicle: saline with Tween-80) was 3 of 6.
`Cc1ccc(NC(=O)Oc2c(C)cccc2C)c([N+](=O)[O-])c1` was tested, and the survivor count (T/C endpoint: mean survival time, dose: 200.0 mg/kg/injection, schedule: Q01DX009 (ip), vehicle: Klucel (hydroxypropylcellulose) (HPC)) was 3 of 3.
In the case of `O=C(O)c1ccccc1N(CCO)CCCl`, the survivor count (T/C endpoint: median survival time, dose: 100.0 mg/kg/injection, schedule: Q01DX009 (ip), vehicle: Klucel (hydroxypropylcellulose) (HPC)) is reported as 0 of 6, the survivor count (T/C endpoint: median survival time, dose: 200.0 mg/kg/injection, schedule: Q01DX009 (ip), vehicle: Klucel (hydroxypropylcellulose) (HPC)) is reported as 0 of 6 and the survivor count (T/C endpoint: median survival time, dose: 400.0 mg/kg/injection, schedule: Q01DX009 (ip), vehicle: Klucel (hydroxypropylcellulose) (HPC)) is reported as 0 of 6.
With `CC1CC(C)(C)NCCNC(C)CC(C)(C)NCCN1` (configuration not stated) the survivor count (T/C endpoint: mean survival time, dose: 100.0 mg/kg/injection, schedule: Q04DX002 (ip), vehicle: Klucel (hydroxypropylcellulose) (HPC)) was 0 of 3, the survivor count (T/C endpoint: mean survival time, dose: 200.0 mg/kg/injection, schedule: Q04DX002 (ip), vehicle: Klucel (hydroxypropylcellulose) (HPC)) was 0 of 3 and the survivor count (T/C endpoint: mean survival time, dose: 400.0 mg/kg/injection, schedule: Q04DX002 (ip), vehicle: Klucel (hydroxypropylcellulose) (HPC)) was 0 of 3.
`CC(C)CC(NC(=O)CCl)C(=O)NCC(=O)O` (configuration not stated) was tested, and the survivor count (T/C endpoint: mean survival time, dose: 200.0 mg/kg/injection, schedule: Q01DX009 (ip), vehicle: saline with Tween-80) was 3 of 6 and the survivor count (T/C endpoint: mean survival time, dose: 400.0 mg/kg/injection, schedule: Q01DX009 (ip), vehicle: saline with Tween-80) was 3 of 6.
For `CS(=O)(=O)OCCN(CCOS(C)(=O)=O)c1ccc(C=Nc2cc(Br)c(O)c(Br)c2)cc1`, the survivor count (T/C endpoint: mean survival time, dose: 200.0 mg/kg/injection, schedule: Q04DX003 (ip), vehicle: Klucel (hydroxypropylcellulose) (HPC)) was 3 of 6 and the survivor count (T/C endpoint: mean survival time, dose: 400.0 mg/kg/injection, schedule: Q04DX003 (ip), vehicle: Klucel (hydroxypropylcellulose) (HPC)) was 5 of 6.
In the case of `C[SH+]c1ccccc1N=Cc1ccccn1.C[SH+]c1ccccc1N=Cc1ccccn1.[Ni+2].[O-][Cl+3]([O-])([O-])[O-]`, the survivor count [1] is reported as 0 of 4.
For `CC[P+](c1ccccc1)(c1ccccc1)c1ccccc1`, the survivor count (T/C endpoint: mean survival time, dose: 5.0 mg/kg/injection, schedule: Q04DX003 (ip), vehicle: saline) was 6 of 6, the survivor count (T/C endpoint: mean survival time, dose: 10.0 mg/kg/injection, schedule: Q04DX003 (ip), vehicle: saline) was 1 of 6 and the survivor count (T/C endpoint: mean survival time, dose: 20.0 mg/kg/injection, schedule: Q04DX003 (ip), vehicle: saline) was 1 of 6.
With `CN(C)C/C(=C\c1ccccc1)C(=O)c1ccccc1` the survivor count (T/C endpoint: mean survival time, dose: 200.0 mg/kg/injection, schedule: Q04DX003 (ip), vehicle: other) was 5 of 6 and the survivor count (T/C endpoint: mean survival time, dose: 400.0 mg/kg/injection, schedule: Q04DX003 (ip), vehicle: other) was 0 of 6.
For `CCCCSP(SCCCC)N1CCCCC1`, the survivor count (T/C endpoint: mean survival time, dose: 400.0 mg/kg/injection, schedule: Q04DX003 (ip), vehicle: saline) was 4 of 6.
